Reference: publication doi:10.1101/2023.08.08.549832
These are yes or no findings as the source states them, for the method shown. In cells and extracts the contact can be indirect. Some entries that bind do so weakly or less than the wild type. Where a sequence is shown, tags or fusion partners need not be part of it.

Target: T1, PTCH2-eGFP (not stated (printed entry Q9Y6C5 is human PTCH2)) (UniProt Q9Y6C5)
T1 sequence: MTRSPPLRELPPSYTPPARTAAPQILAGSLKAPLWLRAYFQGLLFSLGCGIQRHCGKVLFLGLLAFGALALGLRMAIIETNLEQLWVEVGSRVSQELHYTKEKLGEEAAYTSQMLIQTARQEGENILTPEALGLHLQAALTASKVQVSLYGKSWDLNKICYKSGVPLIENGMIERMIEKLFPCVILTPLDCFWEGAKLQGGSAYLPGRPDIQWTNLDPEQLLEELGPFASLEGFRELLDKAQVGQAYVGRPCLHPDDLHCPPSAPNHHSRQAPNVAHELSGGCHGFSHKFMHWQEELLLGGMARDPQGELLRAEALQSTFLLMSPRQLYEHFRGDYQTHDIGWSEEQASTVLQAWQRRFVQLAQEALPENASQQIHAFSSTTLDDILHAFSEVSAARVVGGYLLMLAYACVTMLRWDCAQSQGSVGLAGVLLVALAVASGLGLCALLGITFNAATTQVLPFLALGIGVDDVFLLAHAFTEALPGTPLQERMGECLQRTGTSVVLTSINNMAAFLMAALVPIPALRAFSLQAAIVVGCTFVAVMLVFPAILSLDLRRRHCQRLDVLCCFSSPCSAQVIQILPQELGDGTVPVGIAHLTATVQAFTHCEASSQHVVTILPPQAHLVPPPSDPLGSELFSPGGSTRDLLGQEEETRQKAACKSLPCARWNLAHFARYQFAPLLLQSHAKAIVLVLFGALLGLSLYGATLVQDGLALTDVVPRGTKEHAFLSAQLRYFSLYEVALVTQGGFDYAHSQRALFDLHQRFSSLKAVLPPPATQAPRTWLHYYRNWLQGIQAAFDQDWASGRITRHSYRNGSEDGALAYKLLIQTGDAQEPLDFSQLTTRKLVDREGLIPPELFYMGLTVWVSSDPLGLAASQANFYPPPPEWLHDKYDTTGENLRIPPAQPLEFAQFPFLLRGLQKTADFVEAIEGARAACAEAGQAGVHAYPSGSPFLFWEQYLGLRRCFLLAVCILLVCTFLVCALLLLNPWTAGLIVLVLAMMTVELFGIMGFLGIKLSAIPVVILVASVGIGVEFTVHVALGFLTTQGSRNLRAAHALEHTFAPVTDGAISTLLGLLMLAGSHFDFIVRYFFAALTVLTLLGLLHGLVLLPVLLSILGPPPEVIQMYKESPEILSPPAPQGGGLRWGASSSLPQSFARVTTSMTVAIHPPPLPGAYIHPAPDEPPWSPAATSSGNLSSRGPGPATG
Test: FRET or BRET

binding: binds
B1: PTCH2-mCherry (receptor, UniProt Q9Y6C5 1-1203)
chain: MTRSPPLRELPPSYTPPARTAAPQILAGSLKAPLWLRAYFQGLLFSLGCGIQRHCGKVLFLGLLAFGALALGLRMAIIETNLEQLWVEVGSRVSQELHYTKEKLGEEAAYTSQMLIQTARQEGENILTPEALGLHLQAALTASKVQVSLYGKSWDLNKICYKSGVPLIENGMIERMIEKLFPCVILTPLDCFWEGAKLQGGSAYLPGRPDIQWTNLDPEQLLEELGPFASLEGFRELLDKAQVGQAYVGRPCLHPDDLHCPPSAPNHHSRQAPNVAHELSGGCHGFSHKFMHWQEELLLGGMARDPQGELLRAEALQSTFLLMSPRQLYEHFRGDYQTHDIGWSEEQASTVLQAWQRRFVQLAQEALPENASQQIHAFSSTTLDDILHAFSEVSAARVVGGYLLMLAYACVTMLRWDCAQSQGSVGLAGVLLVALAVASGLGLCALLGITFNAATTQVLPFLALGIGVDDVFLLAHAFTEALPGTPLQERMGECLQRTGTSVVLTSINNMAAFLMAALVPIPALRAFSLQAAIVVGCTFVAVMLVFPAILSLDLRRRHCQRLDVLCCFSSPCSAQVIQILPQELGDGTVPVGIAHLTATVQAFTHCEASSQHVVTILPPQAHLVPPPSDPLGSELFSPGGSTRDLLGQEEETRQKAACKSLPCARWNLAHFARYQFAPLLLQSHAKAIVLVLFGALLGLSLYGATLVQDGLALTDVVPRGTKEHAFLSAQLRYFSLYEVALVTQGGFDYAHSQRALFDLHQRFSSLKAVLPPPATQAPRTWLHYYRNWLQGIQAAFDQDWASGRITRHSYRNGSEDGALAYKLLIQTGDAQEPLDFSQLTTRKLVDREGLIPPELFYMGLTVWVSSDPLGLAASQANFYPPPPEWLHDKYDTTGENLRIPPAQPLEFAQFPFLLRGLQKTADFVEAIEGARAACAEAGQAGVHAYPSGSPFLFWEQYLGLRRCFLLAVCILLVCTFLVCALLLLNPWTAGLIVLVLAMMTVELFGIMGFLGIKLSAIPVVILVASVGIGVEFTVHVALGFLTTQGSRNLRAAHALEHTFAPVTDGAISTLLGLLMLAGSHFDFIVRYFFAALTVLTLLGLLHGLVLLPVLLSILGPPPEVIQMYKESPEILSPPAPQGGGLRWGASSSLPQSFARVTTSMTVAIHPPPLPGAYIHPAPDEPPWSPAATSSGNLSSRGPGPATG
